# Percent effect of library compounds

Values are the deposited “Percent Effect”, in %.
The controls that fix the scale are not given in the record; negative values are as filed.
The compounds are a random part of those screened.
Two or more numbers in one place are separate tests of the same structure; such repeats can differ widely.

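Whole-cell growth test on Mycobacterium tuberculosis, read after 3 days in glucose-containing 7H9 medium; the read-out is not stated. Concentration: 50 µM. Direction is inferred from retests: higher values go with more growth inhibition. Of about 69,000 compounds tested this way, about 760 (1.1%) reached 50% or more in at least one test.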

For [H][C@@]12CCCO[C@]1([H])[C@H](OCC1CC1)CN2C(=O)c1occc1C the result was 18.8%. Result for Cc1ccnc(NC(=O)c2ccc(Br)o2)c1 was 35.04% and 15.42%. With CC(=O)N1CCc2c(nc(N(C)C)nc2NCCC2CCCCO2)C1 (stereo not given) the screen gave -1.846%. With CN(Cc1cn2c(n1)CN(Cc1ccsc1)CC2)Cc1ccco1.O=C(O)C(F)(F)F.O=C(O)C(F)(F)F the screen gave -1.274%. With O=C(Cc1ccon1)NC1CC2(CCC2)Oc2ccccc21 (stereo not given) the screen gave -32.86%.

With Cn1cnc(S(=O)(=O)NCCN2CCCCCC2)c1Cl the screen gave 18.1% and -1.225%. CC(C)C(O)C1CCN(c2ccnc(C(=O)NCc3ccco3)c2)CC1 (stereo not given) gave 18.54%. With O=C(CCCc1nc2ccccc2[nH]1)N1CCCC(n2cccn2)C1 (stereo not given) the screen gave -16.57%. With O=C(O)C(F)(F)F.O=C(O)C(F)(F)F.O=C(O)C(F)(F)F.[H][C@@]12CCCO[C@]1([H])[C@H](N(C)Cc1cccnc1)CN2CC1CC1 the screen gave -7.156%. [H][C@@]12COC[C@]1(COc1nccc(C)n1)CN(C(=O)c1ncccn1)C2 read -32.54%.

Result for Cc1nc(C)n(CC2CCCN(Cc3ccc(F)cc3C#N)C2)n1 (stereo not given) was 5.671% and 28.6%. Result for Cc1nc(O)c2c(n1)CCN(Cc1cc(C)sc1C)CC2 was 27.81%. With CCCC(=O)N1CCC(Nc2nc(O)cc(-c3ccsc3)n2)CC1 the screen gave 1.692%. For COCC(=O)NCc1cc(=O)n2c(n1)CN(Cc1ccoc1)CCC2 the result was -19.62%. CCc1nc(C2CCCN2CCCS(N)(=O)=O)no1 (stereo not given) read -8.954%.

O=C(NCCN1CCc2ccccc2C1)c1scnc1Cl read 0.7784%. With CC1CN(c2ccc(NC(=O)Cn3cccn3)cc2)CCO1 (stereo not given) the screen gave 21.79%. [H][C@]12CC[C@]([H])(CN(c3nnc(C(C)C)s3)C1)N(CCC)C2 read 42.45%. COc1ccc2nnc(CCCC(=O)NCCc3ccncc3)n2n1 read 19.6%. Cc1ccc2c(c1C)OCC2NCc1ccc(C#N)cc1 (stereo not given) read -4.277%.

CC(C)(C)n1c(NC(=O)CNC(=O)NC2CC2)nc2ccccc21 read 4.735%. For CCOc1ccc(NC(=O)c2cccc(OC)c2OC)cc1 the result was 30.83%. With CN1C(=O)C2(CCN(CC3CC3)CC2)c2ccccc21.O=C(O)C(F)(F)F the screen gave -0.1977%. With COc1cccc(C(=O)N2CCCC2c2ncc3c(n2)CCN(C)C3)c1 (stereo not given) the screen gave 3.538%. With CN1CCOCC2(CCCN(C(=O)c3ccccc3F)C2)C1.O=C(O)C(F)(F)F (stereo not given) the screen gave -31.92%.

Cc1cnn(CC2CCCCN2C(=O)Cc2csc(C)n2)c1 (stereo not given) gave 7.869%. With O=C(c1cnc2[nH]c(=O)[nH]c(=O)c2c1)N1CCCC1C1CCCCC1 (stereo not given) the screen gave -20.1%. Result for COc1ccc(CN(C)[C@@H]2CN(C(=O)c3cnn(C)c3)C[C@H]2O)cc1 was 19.13%. With Cc1cc(-c2cnc(N3CCC(O)CC3)nc2-c2cccnc2C)on1 the screen gave -13.45%. For O=C(c1cnccn1)N1CCc2onc(Cn3cccn3)c2C1 the result was -11.27%.

For OC[C@H]1CN(Cc2c(Cl)cncc2Cl)C[C@H]1CN1CCOCC1 the result was -0.6793% and 0.4632%. Result for COCCNc1ccc(CNC(=O)Nc2cn[nH]c2)cc1 was -9.398%. With CCC(C)S(=O)(=O)N1CCc2nc(C3CCNCC3)ncc2C1.Cl (stereo not given) the screen gave 40.57%. Cc1c(NC(=O)N(C)CCCc2cnn(C)c2)cnn1C gave -11.84%. For CCC(C#N)NC(=O)COC1CCCCC1 (stereo not given) the result was 31.67% and 3.978%.

CN(C)S(=O)(=O)CCNc1ncc2c(n1)CCN2c1ccccc1 read 5.754% and 2.458%. Cc1nc2c(c(N3CCC(O)(CN4CCCC4)CC3)n1)CCN(C)CC2 gave 38.34%. Fc1cnc(N2CCn3c(CN4CCCC4)nnc3C2)nc1.O=C(O)C(F)(F)F read 20.87%. With CCOC1CCN(C(=O)c2csc(S(N)(=O)=O)c2)CC1 the screen gave -8.992%. With COCC1c2nnn(CC3CC3)c2CCN1C(=O)CS(C)(=O)=O (stereo not given) the screen gave 12.61% and -3.07%.

CCNC(=O)[C@@H]1C[C@@H](NC(=O)c2cnc[nH]c2=O)CN1Cc1ccsc1 gave -10.93%. COCCO[C@@H]1CCN(C(=O)c2ccc(C)o2)[C@@H]1Cc1cccnc1.O=C(O)C(F)(F)F read -33.18%. For c1ccc2cc(OCCN3CCOC(Cn4cncn4)C3)ccc2c1 (stereo not given) the result was 5.145%. With Cc1nc(CN(C)S(=O)(=O)c2ccccc2C(F)(F)F)no1 the screen gave 4.274% and -3.035%. Result for NC(=O)c1ccc(N2CCCCC2)c(NC(=O)c2cc(Br)ccc2F)c1 was -17.38%.

CC(=O)N1CC(=O)N(c2ccccc2)CC12CCN(Cc1ccsc1)C2 (stereo not given) read -0.5186% and -4.301%. For Cn1cccc1C(=O)N1CCCCC1c1ccn2ccnc2n1 (stereo not given) the result was -31.82%. For CC(=O)N1CCN(C(=O)c2cccc(OCc3cscn3)c2)CC1 the result was -21.68%.

Repeated from the top, 4 entries:

Compound,percent effect
[H][C@@]12CCCO[C@]1([H])[C@H](OCC1CC1)CN2C(=O)c1occc1C,18.8
Cc1ccnc(NC(=O)c2ccc(Br)o2)c1,35.04 and 15.42
CC(=O)N1CCc2c(nc(N(C)C)nc2NCCC2CCCCO2)C1 (stereo not given),-1.846
CN(Cc1cn2c(n1)CN(Cc1ccsc1)CC2)Cc1ccco1.O=C(O)C(F)(F)F.O=C(O)C(F)(F)F,-1.274

Data taken from ChEMBL document CHEMBL3988442, “University of Dundee, Small-Polar-MMV Screening Library” (2021).